Results are given in words; binding and its absence hold for the method and conditions named. Binding seen in cells or lysates may run through a third protein. Some entries that bind do so weakly or less than the wild type.
Key:
[1] = target: FAK P875A/P881A (AA) mutant (UniProt Q00944); test: co-IP; 1 mg lysate (RIPA buffer) of SCC FAK-WT, FAK P875A/P881A or FAK -/- cells, or of Ambra1 +/+ and -/- MEFs, with antibody or antibody-agarose at 4°C overnight; beads washed three times in lysis buffer and once in 0.6 M LiCl; western blot; in some experiments after IFITM3 siRNA
[2] = target: focal adhesion kinase (FAK), wild type, in SCC FAK-WT cells (UniProt Q00944); test: as above

The chains behind the UniProt entries cited, without tags or fusion partners. Where a name states a change or a piece, a line headed by the entry shows the natural chain unless it says otherwise.
UniProt Q00944: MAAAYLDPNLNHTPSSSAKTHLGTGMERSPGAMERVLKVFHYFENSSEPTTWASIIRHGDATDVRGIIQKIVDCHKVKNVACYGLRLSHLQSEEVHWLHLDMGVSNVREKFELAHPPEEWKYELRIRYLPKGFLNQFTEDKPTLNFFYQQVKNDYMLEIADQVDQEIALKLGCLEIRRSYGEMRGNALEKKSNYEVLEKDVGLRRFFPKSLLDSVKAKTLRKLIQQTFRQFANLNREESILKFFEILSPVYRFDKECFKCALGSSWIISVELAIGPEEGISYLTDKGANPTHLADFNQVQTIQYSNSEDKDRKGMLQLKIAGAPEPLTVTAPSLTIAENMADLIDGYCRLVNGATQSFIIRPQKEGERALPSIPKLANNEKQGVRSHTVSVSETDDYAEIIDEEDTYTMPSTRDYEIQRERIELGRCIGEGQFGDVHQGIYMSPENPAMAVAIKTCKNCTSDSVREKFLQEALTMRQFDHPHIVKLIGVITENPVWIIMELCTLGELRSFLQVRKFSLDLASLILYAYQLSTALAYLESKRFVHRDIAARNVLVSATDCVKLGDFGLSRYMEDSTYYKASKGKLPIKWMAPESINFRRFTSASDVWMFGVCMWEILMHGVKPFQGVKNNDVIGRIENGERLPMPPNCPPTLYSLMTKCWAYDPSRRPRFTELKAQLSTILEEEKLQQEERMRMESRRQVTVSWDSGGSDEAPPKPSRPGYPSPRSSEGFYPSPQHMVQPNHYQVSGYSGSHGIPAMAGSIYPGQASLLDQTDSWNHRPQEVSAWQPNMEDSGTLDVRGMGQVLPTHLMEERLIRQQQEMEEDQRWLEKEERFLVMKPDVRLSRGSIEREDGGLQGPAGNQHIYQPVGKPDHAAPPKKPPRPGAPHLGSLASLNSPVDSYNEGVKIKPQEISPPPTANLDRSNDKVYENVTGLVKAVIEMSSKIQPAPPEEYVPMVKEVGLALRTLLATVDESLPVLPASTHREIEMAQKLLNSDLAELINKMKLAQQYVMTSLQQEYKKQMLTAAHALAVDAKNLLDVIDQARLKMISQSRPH

B1: p130Cas (protein, UniProt Q61140 1-874)
chain: MTVPNVLAKALYDNVAESPDELSFRKGDIMTVLERDTQGLDGWWLCSLHGRQGIVPGNRLKILVGMYDKKPVGPGPGPPATPPQPQPSLPQGVHAPVPPASQYSPMLPTAYQPQSDNVYLVPTPSKTQQGLYQAPGPNPQFQSPPAKQTSTFSKQTPHHSFPSPATDLYQVPPGPGSPAQDIYQVPPSAGIGHDIYQVPPSLDTRGWEGTKPPAKVVVPTRVGQGYVYEAAQTEQDEYDTPRHLLAPGPQDIYDVPPVRGLLPNQYGQEVYDTPPMAVKGPNGRDPLLDVYDVPPSVEKGLLSSSHHSVYDVPPSVSKDVPDGPLLREETYDVPPAFAKPKPFDPTRHPLILAAPPPDSPAAEDVYDVPPPAPDLYDVPPGLRRPGPGTLYDVPRERVLPPEVADGSVVDDGVYAVPPPAEREAPTDGKRLSASSTGSTRSSQSASSLEVVVPGREPLELEVAVESLARLQQGVSTTVAHLLDLVGSASGPGGWRGTSEPQEPPAQDLKAAVAAVHGAVHELLEFARGAVSNATHTSDRTLHAKLSRQLQKMEDVYQTLVVHGQVLDSGRGSPGFTPEDLDRLVACSRAVPEDAKQLASFLHGNASLLFRRTKAPGPGPEGSSSLHPNPTDKASSIQSRPLPSPPKFTSQDSPDGQYENSEGGWMEDYDYVHLQGKEEFEKTQKELLERGNIMRQGKGQLELQQLKQFERLEQEVSRPIDHDLANWTPAQPLVPGRTGGLGPSDRQLLLFYLEQCEANLTTLTDAVDAFFTAVATNQPPKIFVAHSKFVILSAHKLVFIGDTLSRQAKAADVRSQVTHYSNLLCDLLRGIVATTKAAALQYPSPSAAQDMVDRVKELGHSTQQFRRVLGQLAAA
Q: B1 was tested. Which binding [1] did it give?
A: The binding was “binds”.

Q: And the binding [2]?
A: Its binding is “binds”.

Reference: publication PMC5376188
